{"source": "PubChem BioAssay AID651789", "about": "(National Center for Advancing Translational Sciences (NCATS), 2012)", "note": "This list was built around the results that the source calls inconclusive (neither active nor inactive); the mix of calls is not that of the screen. A potency beside an inconclusive call is a rough fit, not a confirmed value. The source made the active and inactive calls. Calls come from the whole dose curve; as a rule, active = well fitted inhibition curve with a large enough effect; inconclusive = small, poorly fitted or top-dose-only effect; inactive = no such curve, though single readings can be large or run the other way. Potency is the fitted concentration of half-maximal effect."}
{"assay": "Acumen qHTS Assay for Inhibitors of the mTORC1 Signaling Pathway in WT MEF Cells: Hit Validation; note: nearly all actives have a fitted effect of over 60% in size;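 for activity change, negative = inhibition: phospho-rpS6 Ser235/236 immunofluorescence normalised to propidium iodide cell stain; percent of cells above a cutoff set by 7.5 nM rapamycin treated wells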", "settings": "Acumen imaging; series mostly up to 37.3 µM; activity change, negative = inhibition: at the top concentration", "procedure,_shortened": "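Read-out is immunofluorescent phospho-rpS6 (Ser235/236) normalised to PI-stained cell number, reported as % active cells using a 7.5 nM rapamycin threshold. Cells: WT or Tsc2-/-, p53-/- MEFs, compound-exposed 24 h at 37C; PI count also tracks viability.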"}
{"smiles": "CCCCN(C)CCNC(=O)c1cc2c(=O)n(C)c3ccccc3c2n1C", "activity change, negative = inhibition": "inactive: 16.9%"}
{"smiles": "CCCCN(C)CCCNC(=O)C1CCN(c2nc3ccc(CC)cc3s2)CC1", "Potency": "inconclusive: 26.1 µM [inhibitor, single point]"}
{"smiles": "CCOC(=O)c1cnc2ccc(OC)cc2c1NCCc1ccccc1", "Potency": "inconclusive: 8.26 µM [inhibitor, partial curve, poor fit]"}
{"smiles": "CCOC(=O)N1CCN(Cc2nc3cc(NC(=O)C(C)C)ccc3n2C(C)C)CC1", "Potency": "inconclusive: 2.93 µM [inhibitor, full curve]"}
{"smiles": "COc1ccc(CCCc2nnc(SCC(=O)Nc3ccc(OC)cc3)o2)cc1", "activity change, negative = inhibition": "inactive: 9.53%"}
{"smiles": "CCc1nnc(NC(=O)c2nc(S(=O)(=O)Cc3cccc(C)c3)ncc2Cl)s1", "Potency": "active: 5.21 µM"}
{"smiles": "COc1ccc(-c2cc(C(F)(F)F)nc(S(C)(=O)=O)n2)cc1", "Potency": "inconclusive: 20.7 µM [inhibitor, single point]"}
{"smiles": "CCS(=O)(=O)c1ncc(Cl)c(C(=O)N(Cc2ccccc2)c2ccc(OC)cc2)n1", "Potency": "inconclusive: 2.93 µM [inhibitor, full curve]"}
{"smiles": "CCOC(=O)c1ccc(NC(=O)c2nc(S(=O)(=O)Cc3ccccc3)ncc2Cl)cc1", "Potency": "active: 6.56 µM"}
{"smiles": "CCc1ccc(C(=O)c2cnc3ccc(F)cc3c2S(=O)(=O)c2ccccc2)cc1", "Potency": "inconclusive: 26.1 µM [inhibitor, single point]"}
{"smiles": "CC(C)S(=O)(=O)c1oc(-c2ccc(F)cc2)nc1S(=O)(=O)c1ccc(F)cc1", "Potency": "active: 0.521 µM"}
{"smiles": "COc1cccc(-n2c(-c3ccc(C)cc3)cc3c2CC(C)(C)CC3=O)c1", "activity change, negative = inhibition": "inactive: -25.8%"}
{"smiles": "CCOC(=O)Cc1ccc(NC(=O)n2ncc3cc(Cl)ccc32)cc1", "activity change, negative = inhibition": "inactive: 15.1%"}
{"smiles": "COCCCNC(=O)c1cc2c(=O)oc3ccc(C)cc3c2s1", "Potency": "inconclusive: 1.65 µM [inhibitor, full curve, poor fit]"}
{"smiles": "CCc1cccc(NC(=O)c2oc3ccc4c(c3c2C)C(=O)CC(C)(C)O4)c1", "Potency": "inconclusive: 9.27 µM [inhibitor, partial curve, poor fit]"}
{"smiles": "Cc1cccc(OCC(=O)Nc2ccc3c(c2)N(C)C(=O)c2ccccc2S3)c1", "Potency": "inconclusive: 14.7 µM [inhibitor, single point]"}
{"smiles": "CCOC(=O)c1c(C)n(-c2ccccc2)c2ccc(OC(=O)c3ccccc3)cc12", "Potency": "inconclusive: 23.3 µM [inhibitor, single point]"}
{"smiles": "CCCCN1C(=O)C(O)(CC(=O)c2ccc(C(C)(C)C)cc2)c2ccccc21", "note": "(configuration not stated)", "Potency": "inconclusive: 16.5 µM [inhibitor, single point]"}
{"smiles": "NS(=O)(=O)c1cc(C(=O)O)c(NCc2ccco2)cc1Cl", "activity change, negative = inhibition": "inactive: 18.9%"}
{"smiles": "Cc1cccc(NC(=O)Cn2cc(C(=O)C3CCCCC3)c3ccccc32)c1C", "Potency": "inconclusive: 2.61 µM [inhibitor, full curve]"}
{"smiles": "C=CCc1c(C)nc2nc(SCC(=O)Nc3ccc(C)c(C)c3)nn2c1C", "Potency": "active: 1.17 µM"}
{"smiles": "COc1ccc(NC(=O)C(NC(=O)/C=C\\c2ccc3c(c2)OCO3)c2ccccc2)cc1", "note": "(configuration not stated)", "activity change, negative = inhibition": "inactive: -25.3%"}
{"smiles": "COc1cc(Cl)c(C)cc1Nc1c2c(nc3ccccc13)CCC2", "Potency": "inconclusive: 1.65 µM [inhibitor, full curve]"}
{"smiles": "Cc1ccc(-c2nc3ccccn3c2Nc2c(C)cccc2C)o1", "Potency": "inconclusive: 23.3 µM [inhibitor, single point]"}
{"smiles": "CCC1=Nc2cc(C(=O)NC3CCCC3)ccc2Sc2ccc(Br)cc21", "Potency": "active: 1.85 µM"}
{"smiles": "CCOc1ccc(S(=O)(=O)NCCc2sc(-c3ccc(C)cc3)nc2C)cc1", "Potency": "inconclusive: 1.31 µM [inhibitor, partial curve, poor fit]"}
{"smiles": "CCN(CC)c1ccc(NC(=O)CCS(=O)(=O)c2cccc3nsnc23)c(C)c1", "Potency": "inconclusive: 11.7 µM [inhibitor, single point]"}
